Data as given in PubChem BioAssay AID652243 (Drosophila RNAi Screening Center, 2013)
The deposit covers about 24,000 reagents; this is a random part of those that have a named target and a result. Over the whole deposit, 246 (1%) were called active. 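Plates not normalised; calls are printed but the firefly/Renilla ratio behind them is not deposited; fold cut for lowering reported inconsistently.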 The raw values are shown without normalisation. Names joined by + are all predicted targets of the reagent. The record does not give: the amount of reagent.

- Aim: 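Fly genes required for human androgen receptor driven transcription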 (primary screen)
- Cell system: Drosophila S2R+ cells
- Reagent: long dsRNA against Drosophila genes
- Duration: 72 h (48 h, then 24 h hormone)
- Conditions: synthetic androgen R1881 at 10 nM for 24 h
- Detection: 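Firefly light from an androgen-responsive reporter and Renilla control light per well, raw and unnormalised, for each of two replicates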
- Direction: firefly reporter light: higher = more light from androgen-responsive reporter; Renilla control light: higher = more constitutive control signal (cell number, transfection)
- Hit rule: 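Across duplicate plates, a knock-down whose log firefly/Renilla ratio shifted a set fold down or up from the GFP/LacZ control mean was a hit; the downward cut appears as both 1.5 and 3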
- Calls: active = hit: reporter lowered or raised; inactive = no hit

gene,amplicon,"firefly reporter light, replicate 1","firefly reporter light, replicate 2","Renilla control light, replicate 1","Renilla control light, replicate 2",call
Fbp1 (GeneID 39566),DRSC11166,1.23e5,1.20e5,1.42e6,1.38e6,inactive
Fbp1 (GeneID 39566),DRSC26593,2.58e5,3.20e5,2.49e5,4.47e5,inactive
CG10804 (GeneID 31317),DRSC17764,1.50e5,1.29e5,9.72e5,6.76e5,inactive
moi + Tgs1,DRSC16371,61681,59358,6.43e5,5.26e5,inactive
CG5292 (GeneID 42079),DRSC15763,1.18e5,1.35e5,2.51e6,2.83e6,inactive
CG5292 (GeneID 42079),DRSC26304,3.14e5,3.19e5,6.63e5,6.95e5,inactive
lds (GeneID 45894),DRSC16988,73837,1.05e5,1.37e6,1.15e6,inactive
Cap-G (GeneID 36440),DRSC06652,3.99e5,3.38e5,1.98e6,2.28e6,inactive
Cap-G (GeneID 36440),DRSC06653,1.85e5,1.26e5,1.10e6,8.27e5,inactive
Cap-G (GeneID 36440),DRSC21805,5.24e5,3.50e5,3.38e6,3.40e6,inactive
CadN2 (GeneID 35071),DRSC03062,1.68e5,1.97e5,2.62e6,3.36e6,inactive
CadN2 (GeneID 35071),DRSC03063,2.53e5,2.62e5,2.59e6,2.90e6,inactive
CadN2 (GeneID 35071),DRSC03064,2.21e5,2.31e5,2.43e6,2.25e6,inactive
CG8152 (GeneID 36696),DRSC07083,59642,69074,1.39e6,1.39e6,inactive
Pgant5 (GeneID 326151),DRSC03149,3.95e5,6.11e5,7.15e5,8.51e5,inactive

2 entries from above, showing only “firefly reporter light, replicate 1”.
CG10804 (GeneID 31317) [DRSC17764]	1.50e5
moi + Tgs1 [DRSC16371]	61681

More entries follow:
gene,amplicon,"firefly reporter light, replicate 1","firefly reporter light, replicate 2","Renilla control light, replicate 1","Renilla control light, replicate 2",call
sta (GeneID 31106),DRSC18838,2.13e5,1.92e5,1.99e6,1.99e6,inactive
sta (GeneID 31106),DRSC25879,2.64e5,2.99e5,6.00e5,4.47e5,inactive
sstn (GeneID 39643),DRSC10753,1.66e5,1.20e5,2.01e6,1.28e6,inactive
sstn (GeneID 39643),DRSC29335,5.19e5,6.41e5,1.48e6,1.48e6,inactive
CG11382 (GeneID 31069),DRSC18624,2.53e5,2.41e5,2.89e6,2.39e6,inactive
Syx7 (GeneID 36173),DRSC11763,65372,87222,6.54e5,7.51e5,inactive
CG33287 (GeneID 2768986),DRSC22929,4.08e5,1.00e6,8.95e5,1.53e6,inactive
CG10839 (GeneID 34944),DRSC01965,1.77e5,1.74e5,1.79e6,2.39e6,inactive
Alp13 (GeneID 41236),DRSC15781,1.22e5,1.37e5,2.81e6,1.82e6,inactive
Alp13 (GeneID 41236),DRSC36919,,,,,inactive
